# These are yes or no findings as the source states them, for the method shown. Binding seen in cells or lysates may run through a third protein. These calls come from enrichment with a bait or labelling near it, and not all partners need be listed. For part of these data: No binding means not detected with the bait.
# Amino acid sequences for entries named in this document (tags omitted). Residues count along the entry.
# UniProt P02769, residues 25-607: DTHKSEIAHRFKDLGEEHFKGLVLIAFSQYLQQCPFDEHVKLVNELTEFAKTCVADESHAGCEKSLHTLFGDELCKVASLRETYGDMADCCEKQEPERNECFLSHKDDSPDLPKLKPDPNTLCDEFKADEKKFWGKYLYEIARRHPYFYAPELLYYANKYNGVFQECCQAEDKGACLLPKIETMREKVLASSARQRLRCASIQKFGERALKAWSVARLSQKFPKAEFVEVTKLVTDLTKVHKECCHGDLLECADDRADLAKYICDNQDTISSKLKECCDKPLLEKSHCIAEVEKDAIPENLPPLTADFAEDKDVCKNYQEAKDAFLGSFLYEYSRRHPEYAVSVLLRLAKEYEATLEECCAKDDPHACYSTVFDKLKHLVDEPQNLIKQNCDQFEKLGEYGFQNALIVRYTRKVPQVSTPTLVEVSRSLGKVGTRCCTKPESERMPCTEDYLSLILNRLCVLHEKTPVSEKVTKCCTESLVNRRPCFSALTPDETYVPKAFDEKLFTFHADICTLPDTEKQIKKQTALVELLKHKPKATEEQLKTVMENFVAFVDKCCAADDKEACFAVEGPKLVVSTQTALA
# T1: SBDS orthologue from Methanothermobacter thermautotrophicus (mthSBDS), recombinant, from plasmid pYCL02 (Methanothermobacter thermautotrophicus) (UniProt O26781)
# T1 sequence: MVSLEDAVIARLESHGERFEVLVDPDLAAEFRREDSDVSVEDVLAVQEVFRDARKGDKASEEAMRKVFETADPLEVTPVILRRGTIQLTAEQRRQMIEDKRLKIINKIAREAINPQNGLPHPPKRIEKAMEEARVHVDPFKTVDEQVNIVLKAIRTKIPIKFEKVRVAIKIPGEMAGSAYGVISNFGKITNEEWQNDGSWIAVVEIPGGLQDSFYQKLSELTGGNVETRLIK
# B1: Ribosomal protein L14 of M. thermautotrophicus (protein, UniProt O26121 1-132)
# chain: MKAIASKVTRALPVGARLQCVDNTGAREVEIISVRGYKGVRRRLAAAGVGDMVVVSVKKGTVDMRREVLNAVIVRQKKEYRRPDGLRVKFEDNAAVIVSPEGVLKGSEIRGPVAKEAADRWPSVGSAASIIV
# B2: Ribosomal protein L2 of M. thermautotrophicus (protein, UniProt O26113 1-241)
# chain: MGKRLISQRRGRGTPTYRSASHRFKGKIKYRAYDSIESEGSLKGKVVDIMHDPGRTAPVARVKFENGEERLILAPEALMLNEEVECGVKARVKPGNSLPLSEIPEGTPIYNIENRPGDGGKLVRSSGTYASLITHDADKAVIELPSGELKALNPQCRATVGVVAGGGRREKPFLKAGKKYHALRAKGKKSVTVRGVAMNAVDHPHGGGNRQHPGRPTTVSRHAPPGRKVGSIAARRTGKRR
# B3: Ribosomal protein L1 of M. thermautotrophicus (protein, UniProt O27716 1-212)
# chain: MQQEIMEAVKKAKELSRPRNFTQSMDVILNIKDLDVNKPENRFDEEVSLPNGRGKDVKIAVIADGELALQAKNAGADLVITKDELEELGKNRKEAKKLANQYEFFVAQADMMPLVGRFMGPVLGPRKKMPKPVPATINPEPILNKLRDTVKVRIKDQPVVHTVVGTEDMDDEKLAENIEAVLQTIDRKLEKGRNQLKSMYVKTTMGPVVRVI
# Biological target: BSA (UniProt P02769)
# Assay: affinity purification with mass spectrometry; 3 mg mthSBDS (control: 3 mg BSA) covalently coupled to a 1 ml NHS-activated column; M. thermautotrophicus lysate digested with RNase A and DNase I loaded; eluted with 100 mM glycine-HCl pH 2; SDS-PAGE, silver staining, bands excised, trypsin, MALDI-TOF/TOF, MASCOT; only the target purified
row,binding,Binder
1,no binding,B1
2,no binding,B2
3,no binding,B3

# Biological target: T1, SBDS orthologue from Methanothermobacter thermautotrophicus (mthSBDS), recombinant, from plasmid pYCL02 (Methanothermobacter thermautotrophicus)
# Assay: as above
row,binding,Binder
1,binds,B1
2,binds,B2
3,binds,B3
